Assay [1] concerns the target RUVBL1 (endogenous, HeLa) (human (endogenous in HeLa)) (UniProt Q9Y265). The experiment in a line: co-IP; endogenous RUVBL1 immunoprecipitated from HeLa lysate, endogenous PRMT5 detected (Figure 3C).
The target in assay [2] is FLAG-tagged RUVBL1 (wild type) (human) (UniProt Q9Y265). The experiment in a line: co-IP; ectopic myc-PRMT5 MD with FLAG-RUVBL1 or FLAG-RUVBL2 (Figure 3B); 0.1% NP40 lysis buffer, 150 mM NaCl; cell line not stated.
Assay [3] addresses FLAG-tagged RUVBL2 (human) (UniProt Q9Y230). The description is as above.
Assay [4] has as its target myc-tagged catalytically inactive PRMT5 (myc-PRMT5 MD) (UniProt O14744). Nature of the assay: co-IP; transfected 293T cells, untreated or damaged with 10 Gy IR; myc-PRMT5 MD immunoprecipitated, associated RUVBL1 detected by FLAG immunoblotting (Figure 3H). A general note: In western blotting, separated proteins are transferred to a membrane and probed.

Sequences of proteins named here, by UniProt entry; tags and fusion partners are left off. A change or cut given only in a name is not applied to a line headed by its entry. A line that says so, or that is headed by a name, gives the form on record, which may keep a tag or linker.
UniProt Q9Y265: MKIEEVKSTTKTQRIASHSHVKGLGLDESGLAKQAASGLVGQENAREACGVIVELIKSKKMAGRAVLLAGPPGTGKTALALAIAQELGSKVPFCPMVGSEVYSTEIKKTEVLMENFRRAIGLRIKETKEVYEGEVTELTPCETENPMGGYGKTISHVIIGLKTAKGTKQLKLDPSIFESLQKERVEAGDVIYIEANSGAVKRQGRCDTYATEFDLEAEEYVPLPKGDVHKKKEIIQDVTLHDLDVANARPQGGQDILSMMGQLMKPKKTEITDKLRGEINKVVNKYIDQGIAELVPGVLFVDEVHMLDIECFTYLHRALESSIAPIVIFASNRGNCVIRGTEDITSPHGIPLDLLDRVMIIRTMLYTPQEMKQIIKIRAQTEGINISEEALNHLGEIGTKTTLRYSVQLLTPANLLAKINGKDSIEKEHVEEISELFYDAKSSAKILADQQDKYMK
UniProt Q9Y230: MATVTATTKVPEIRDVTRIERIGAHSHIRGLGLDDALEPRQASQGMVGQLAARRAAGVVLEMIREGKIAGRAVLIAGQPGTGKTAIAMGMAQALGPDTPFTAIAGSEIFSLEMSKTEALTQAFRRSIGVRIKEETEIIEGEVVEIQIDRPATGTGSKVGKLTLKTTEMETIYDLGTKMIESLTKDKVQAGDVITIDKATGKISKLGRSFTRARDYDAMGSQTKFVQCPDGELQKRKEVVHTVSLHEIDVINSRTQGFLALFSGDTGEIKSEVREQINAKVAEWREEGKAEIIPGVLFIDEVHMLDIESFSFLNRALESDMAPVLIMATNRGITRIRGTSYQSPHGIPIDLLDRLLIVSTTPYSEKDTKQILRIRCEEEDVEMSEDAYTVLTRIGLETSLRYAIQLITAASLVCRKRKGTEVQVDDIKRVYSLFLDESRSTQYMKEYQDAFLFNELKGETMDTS
UniProt O14744: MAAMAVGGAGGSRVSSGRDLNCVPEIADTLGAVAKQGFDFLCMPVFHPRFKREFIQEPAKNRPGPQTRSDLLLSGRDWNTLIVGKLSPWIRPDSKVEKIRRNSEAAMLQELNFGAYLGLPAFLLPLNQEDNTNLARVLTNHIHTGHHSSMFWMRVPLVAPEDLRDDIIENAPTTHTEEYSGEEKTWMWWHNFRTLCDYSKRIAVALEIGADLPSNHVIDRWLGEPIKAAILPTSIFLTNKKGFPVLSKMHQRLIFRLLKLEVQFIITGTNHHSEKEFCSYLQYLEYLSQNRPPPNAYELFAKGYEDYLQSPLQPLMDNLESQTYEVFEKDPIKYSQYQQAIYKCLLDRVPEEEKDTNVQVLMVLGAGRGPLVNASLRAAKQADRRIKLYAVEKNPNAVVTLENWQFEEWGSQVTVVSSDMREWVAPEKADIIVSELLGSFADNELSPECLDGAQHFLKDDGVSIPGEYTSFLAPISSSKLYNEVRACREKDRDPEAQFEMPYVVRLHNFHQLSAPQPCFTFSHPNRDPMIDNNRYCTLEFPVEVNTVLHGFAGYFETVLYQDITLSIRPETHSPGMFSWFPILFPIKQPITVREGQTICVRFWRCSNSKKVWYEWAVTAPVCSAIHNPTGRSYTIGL
myc-tagged catalytically inactive PRMT5 (myc-PRMT5 MD) (O14744, form named): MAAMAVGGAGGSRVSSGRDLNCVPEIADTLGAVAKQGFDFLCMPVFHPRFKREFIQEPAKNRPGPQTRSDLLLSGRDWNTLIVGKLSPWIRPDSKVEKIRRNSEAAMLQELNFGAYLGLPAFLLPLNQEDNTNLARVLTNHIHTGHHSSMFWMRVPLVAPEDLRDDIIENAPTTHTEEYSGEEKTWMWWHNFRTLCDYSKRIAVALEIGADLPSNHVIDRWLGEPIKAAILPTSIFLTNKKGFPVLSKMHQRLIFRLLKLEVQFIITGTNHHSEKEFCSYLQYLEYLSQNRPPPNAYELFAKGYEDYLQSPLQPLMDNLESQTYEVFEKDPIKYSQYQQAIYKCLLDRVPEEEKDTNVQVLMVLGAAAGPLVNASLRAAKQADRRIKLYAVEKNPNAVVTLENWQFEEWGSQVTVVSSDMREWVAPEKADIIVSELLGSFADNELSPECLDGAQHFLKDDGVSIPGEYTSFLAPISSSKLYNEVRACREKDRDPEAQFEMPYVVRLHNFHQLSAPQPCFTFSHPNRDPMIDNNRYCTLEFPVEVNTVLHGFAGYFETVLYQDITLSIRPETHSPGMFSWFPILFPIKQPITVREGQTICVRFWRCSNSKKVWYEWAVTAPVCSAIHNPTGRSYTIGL

These are yes or no findings as the source states them, for the method shown. In cells and extracts the contact can be indirect. Some binding calls cover weakened binding; strength is not graded here.

As for “PRMT5 (endogenous, HeLa) (from UniProt O14744 1-637) (enzyme)”, the binding entry in assay [1] is reported as “binds”.

“myc-tagged catalytically inactive PRMT5 (myc-PRMT5 MD) (from UniProt O14744 1-637) (enzyme)”: the binding entry in assay [2] and in assay [3] was “binds” in each case.

Take “FLAG-tagged RUVBL1 (wild type) (from UniProt Q9Y265 1-456)”: the binding result in assay [4] is on record as “binds”.
